From publication PMC11994309
No constants are given. Whether binding was seen depends on the method and setting. In cells and extracts the contact can be indirect. Some binding calls cover weakened binding; strength is not graded here. Sequences can lack the tags named with a protein.

Legend:
[1] = target: T1, beta-1,4-galactosyltransferase 1 (B4GALT1) fused with a NanoBiT fragment (human) (UniProt P15291); assay: split reporter; NanoBiT in living HEK293T GALE&GALT KO cells (UDP-Gal below detection); ratio to a HaloTag negative control, threshold 10-fold
T1 sequence: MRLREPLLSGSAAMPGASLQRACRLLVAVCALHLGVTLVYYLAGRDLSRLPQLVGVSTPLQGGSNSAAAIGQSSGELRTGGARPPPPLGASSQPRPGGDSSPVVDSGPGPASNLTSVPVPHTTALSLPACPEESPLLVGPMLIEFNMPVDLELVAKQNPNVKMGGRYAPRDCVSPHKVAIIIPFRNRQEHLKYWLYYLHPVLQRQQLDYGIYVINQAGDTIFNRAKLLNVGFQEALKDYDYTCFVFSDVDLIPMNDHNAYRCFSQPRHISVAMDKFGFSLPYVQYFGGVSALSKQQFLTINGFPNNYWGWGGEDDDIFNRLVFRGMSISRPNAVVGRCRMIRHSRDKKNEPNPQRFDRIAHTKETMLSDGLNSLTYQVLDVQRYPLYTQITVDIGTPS

[2] = target: T1, beta-1,4-galactosyltransferase 1 (B4GALT1) fused with a NanoBiT fragment (human); assay: split reporter; NanoBiT in living HEK293T GALE KO cells (UDP-Gal almost absent); ratio to a HaloTag negative control, threshold 10-fold
[3] = target: T1, beta-1,4-galactosyltransferase 1 (B4GALT1) fused with a NanoBiT fragment (human); assay: split reporter; NanoBiT in living HEK293T cells, WT control and GALT KO; 25 ng of each plasmid per well, luminescence 20-24 h after transfection; ratio to a HaloTag negative control, threshold 10-fold
[4] = target: SLC35A2 (UDP-Gal transporter) fused with a NanoBiT fragment (human) (UniProt P78381); assay: as above

- binding [2]: no binding (condition: in GALE KO cells)
- binding [3]: binds
- binding [4]: binds
B1: SLC35A2 (UDP-Gal transporter) fused with a NanoBiT fragment (protein, UniProt P78381-1 1-396)
chain: MAAVGAGGSTAAPGPGAVSAGALEPGTASAAHRRLKYISLAVLVVQNASLILSIRYARTLPGDRFFATTAVVMAEVLKGLTCLLLLFAQKRGNVKHLVLFLHEAVLVQYVDTLKLAVPSLIYTLQNNLQYVAISNLPAATFQVTYQLKILTTALFSVLMLNRSLSRLQWASLLLLFTGVAIVQAQQAGGGGPRPLDQNPGAGLAAVVASCLSSGFAGVYFEKILKGSSGSVWLRNLQLGLFGTALGLVGLWWAEGTAVATRGFFFGYTPAVWGVVLNQAFGGLLVAVVVKYADNILKGFATSLSIVLSTVASIRLFGFHVDPLFALGAGLVIGAVYLYSLPRGAAKAIASASASASGPCVHQQPPGQPPPPQLSSHRGDLITEPFLPKLLTKVKGS
- binding [1]: no binding (condition: in GALE&GALT KO cells)
